The record followed here is article PMC4117610.

Amino acid sequences for entries named in this document (tags omitted). A change or cut given only in a name is not applied to a line headed by its entry.
UniProt Q8BNI4: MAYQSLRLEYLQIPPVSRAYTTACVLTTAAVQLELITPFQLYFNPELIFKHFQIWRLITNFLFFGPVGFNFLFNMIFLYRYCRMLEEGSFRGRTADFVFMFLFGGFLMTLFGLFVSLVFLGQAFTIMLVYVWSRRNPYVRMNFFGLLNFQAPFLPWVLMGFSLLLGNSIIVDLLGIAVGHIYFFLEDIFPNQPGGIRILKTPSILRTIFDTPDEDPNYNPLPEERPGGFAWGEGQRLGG

These are yes or no findings as the source states them, for the method shown. In cells and extracts the contact can be indirect.

This experiment addresses Derl2 with a C-terminal GFP tag (Derl2-GFP), S-tagged (mouse) (UniProt Q8BNI4). As to the kind of experiment: pull-down; 293 cells transfected with S-tagged forms of Derl2, lysed after 72 h in 1% digitonin buffer; S-protein agarose precipitates, washed with 0.1% digitonin, 25 mM Tris-HCl, 150 mM NaCl, 5 mM EDTA, pH 7.0; western blot with anti-p97 and anti-S-tag.

Take “AAA ATPase p97 (from UniProt P55072 1-806)”: the binding result is on record as “no binding”.
